Experimental data as given in publication PMC12591123.
These are yes or no findings as the source states them, for the method shown. Binding seen in cells or lysates may run through a third protein. Some binding calls cover weakened binding; strength is not graded here.

Sequences of proteins named here, by UniProt entry; tags and fusion partners are left off. A change or cut given only in a name is not applied to a line headed by its entry. Residues count along the entry.
UniProt P98161: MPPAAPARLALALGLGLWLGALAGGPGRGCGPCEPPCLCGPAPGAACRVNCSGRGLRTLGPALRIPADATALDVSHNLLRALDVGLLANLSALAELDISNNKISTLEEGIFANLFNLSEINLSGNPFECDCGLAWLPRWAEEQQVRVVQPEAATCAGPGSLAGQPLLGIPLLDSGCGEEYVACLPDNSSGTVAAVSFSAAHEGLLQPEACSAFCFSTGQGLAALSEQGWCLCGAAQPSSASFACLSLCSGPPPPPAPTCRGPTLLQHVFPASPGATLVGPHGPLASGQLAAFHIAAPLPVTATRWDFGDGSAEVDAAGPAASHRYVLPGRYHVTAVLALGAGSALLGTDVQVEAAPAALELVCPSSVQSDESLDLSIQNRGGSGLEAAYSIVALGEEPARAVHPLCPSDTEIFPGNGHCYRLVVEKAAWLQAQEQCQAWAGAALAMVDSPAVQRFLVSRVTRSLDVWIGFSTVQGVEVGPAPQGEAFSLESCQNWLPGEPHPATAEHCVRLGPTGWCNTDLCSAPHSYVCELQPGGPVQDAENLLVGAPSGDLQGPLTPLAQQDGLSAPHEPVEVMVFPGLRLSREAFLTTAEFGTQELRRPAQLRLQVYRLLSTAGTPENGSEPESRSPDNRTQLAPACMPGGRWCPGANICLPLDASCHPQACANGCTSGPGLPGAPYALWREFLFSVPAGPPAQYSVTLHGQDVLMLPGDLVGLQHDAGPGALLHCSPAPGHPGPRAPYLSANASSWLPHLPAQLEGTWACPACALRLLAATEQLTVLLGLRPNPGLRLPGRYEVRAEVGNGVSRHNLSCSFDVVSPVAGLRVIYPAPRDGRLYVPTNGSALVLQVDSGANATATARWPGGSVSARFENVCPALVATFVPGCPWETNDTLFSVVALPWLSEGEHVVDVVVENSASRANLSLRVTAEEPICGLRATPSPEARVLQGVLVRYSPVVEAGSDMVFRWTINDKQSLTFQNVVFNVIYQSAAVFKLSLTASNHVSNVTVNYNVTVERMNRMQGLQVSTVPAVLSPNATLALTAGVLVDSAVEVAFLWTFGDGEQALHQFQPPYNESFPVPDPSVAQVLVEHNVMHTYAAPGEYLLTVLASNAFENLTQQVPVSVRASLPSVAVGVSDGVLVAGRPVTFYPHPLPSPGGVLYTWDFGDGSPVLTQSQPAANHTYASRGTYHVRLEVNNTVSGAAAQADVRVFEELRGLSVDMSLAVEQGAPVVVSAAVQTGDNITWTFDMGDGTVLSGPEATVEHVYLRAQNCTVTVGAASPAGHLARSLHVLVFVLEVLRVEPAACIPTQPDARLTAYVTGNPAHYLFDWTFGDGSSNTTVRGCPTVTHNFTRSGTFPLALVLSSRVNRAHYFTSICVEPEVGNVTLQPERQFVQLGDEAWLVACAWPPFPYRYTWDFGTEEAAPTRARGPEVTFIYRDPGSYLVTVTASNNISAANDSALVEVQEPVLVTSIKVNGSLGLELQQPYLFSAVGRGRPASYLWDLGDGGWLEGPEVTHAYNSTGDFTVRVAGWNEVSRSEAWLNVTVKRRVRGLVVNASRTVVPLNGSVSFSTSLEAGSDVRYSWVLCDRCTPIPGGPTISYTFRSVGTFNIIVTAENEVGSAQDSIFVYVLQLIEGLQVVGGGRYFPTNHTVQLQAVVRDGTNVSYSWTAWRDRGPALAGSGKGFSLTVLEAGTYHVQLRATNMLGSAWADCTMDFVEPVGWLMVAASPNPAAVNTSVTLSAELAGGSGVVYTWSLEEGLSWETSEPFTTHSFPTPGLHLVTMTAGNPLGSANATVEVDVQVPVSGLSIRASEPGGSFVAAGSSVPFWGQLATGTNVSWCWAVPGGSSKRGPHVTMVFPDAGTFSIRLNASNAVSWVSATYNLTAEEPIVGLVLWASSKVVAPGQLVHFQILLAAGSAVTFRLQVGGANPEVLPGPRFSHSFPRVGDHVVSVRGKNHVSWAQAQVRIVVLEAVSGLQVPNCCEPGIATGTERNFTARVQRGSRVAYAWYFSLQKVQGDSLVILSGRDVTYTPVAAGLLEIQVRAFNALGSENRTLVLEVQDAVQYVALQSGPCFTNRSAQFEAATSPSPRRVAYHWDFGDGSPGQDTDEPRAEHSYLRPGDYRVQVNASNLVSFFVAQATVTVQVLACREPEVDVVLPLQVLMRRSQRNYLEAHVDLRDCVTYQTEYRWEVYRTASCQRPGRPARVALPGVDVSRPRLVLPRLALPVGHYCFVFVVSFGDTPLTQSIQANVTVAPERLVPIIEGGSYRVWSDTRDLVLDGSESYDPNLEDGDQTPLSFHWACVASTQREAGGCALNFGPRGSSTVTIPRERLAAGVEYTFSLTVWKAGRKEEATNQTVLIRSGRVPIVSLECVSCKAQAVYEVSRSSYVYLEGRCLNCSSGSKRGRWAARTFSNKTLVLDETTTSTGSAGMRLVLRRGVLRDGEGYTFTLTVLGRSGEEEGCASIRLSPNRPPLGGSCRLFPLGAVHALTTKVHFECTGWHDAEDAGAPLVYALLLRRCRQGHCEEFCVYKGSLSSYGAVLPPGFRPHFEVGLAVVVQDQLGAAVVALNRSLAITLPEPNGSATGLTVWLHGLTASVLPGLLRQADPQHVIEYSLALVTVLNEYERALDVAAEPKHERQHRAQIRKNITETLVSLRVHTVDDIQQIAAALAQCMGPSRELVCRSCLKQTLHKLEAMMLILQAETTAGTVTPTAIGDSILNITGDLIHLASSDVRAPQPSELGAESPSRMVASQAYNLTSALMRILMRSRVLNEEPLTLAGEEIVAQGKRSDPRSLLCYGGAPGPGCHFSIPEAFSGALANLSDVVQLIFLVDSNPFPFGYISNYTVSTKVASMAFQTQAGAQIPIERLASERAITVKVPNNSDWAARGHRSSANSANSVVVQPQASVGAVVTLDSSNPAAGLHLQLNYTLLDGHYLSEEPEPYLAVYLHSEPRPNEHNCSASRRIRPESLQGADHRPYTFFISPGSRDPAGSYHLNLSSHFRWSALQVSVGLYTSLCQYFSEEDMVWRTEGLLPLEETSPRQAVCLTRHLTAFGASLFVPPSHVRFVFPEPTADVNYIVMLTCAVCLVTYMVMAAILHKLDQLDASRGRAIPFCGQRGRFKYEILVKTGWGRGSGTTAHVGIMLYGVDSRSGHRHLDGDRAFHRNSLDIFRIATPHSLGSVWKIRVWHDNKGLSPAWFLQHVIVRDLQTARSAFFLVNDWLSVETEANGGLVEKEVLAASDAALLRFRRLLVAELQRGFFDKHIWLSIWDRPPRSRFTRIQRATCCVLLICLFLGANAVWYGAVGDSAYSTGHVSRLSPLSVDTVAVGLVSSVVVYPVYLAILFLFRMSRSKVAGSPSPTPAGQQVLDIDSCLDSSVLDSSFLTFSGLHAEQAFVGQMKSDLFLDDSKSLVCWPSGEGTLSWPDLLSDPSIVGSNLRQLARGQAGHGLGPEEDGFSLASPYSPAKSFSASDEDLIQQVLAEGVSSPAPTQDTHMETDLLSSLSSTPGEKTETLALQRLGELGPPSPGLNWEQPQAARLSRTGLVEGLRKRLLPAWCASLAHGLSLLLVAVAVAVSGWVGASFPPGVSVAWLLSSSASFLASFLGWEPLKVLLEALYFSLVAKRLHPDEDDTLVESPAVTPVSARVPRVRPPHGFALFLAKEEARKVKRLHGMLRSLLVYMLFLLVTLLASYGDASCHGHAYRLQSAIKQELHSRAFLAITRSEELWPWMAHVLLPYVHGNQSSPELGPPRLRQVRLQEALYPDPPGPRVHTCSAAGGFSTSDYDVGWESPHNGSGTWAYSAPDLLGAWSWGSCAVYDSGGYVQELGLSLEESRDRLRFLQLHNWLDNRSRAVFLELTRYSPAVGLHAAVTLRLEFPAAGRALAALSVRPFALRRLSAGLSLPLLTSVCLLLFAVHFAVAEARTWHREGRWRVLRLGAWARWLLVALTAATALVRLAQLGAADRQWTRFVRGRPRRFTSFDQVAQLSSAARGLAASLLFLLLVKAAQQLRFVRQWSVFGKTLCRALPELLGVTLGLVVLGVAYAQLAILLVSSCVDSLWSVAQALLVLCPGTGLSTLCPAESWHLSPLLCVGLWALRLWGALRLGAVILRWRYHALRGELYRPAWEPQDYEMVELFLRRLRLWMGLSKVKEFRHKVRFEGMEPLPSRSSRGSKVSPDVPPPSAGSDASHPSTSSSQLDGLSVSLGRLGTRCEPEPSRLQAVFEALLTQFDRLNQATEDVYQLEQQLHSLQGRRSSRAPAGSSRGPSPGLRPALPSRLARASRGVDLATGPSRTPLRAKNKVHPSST
polycystin‐1, full length (pCI‐PC1‐Flag): residues 24-4303 of P98161
HA‐(3048‐3703) fragment of polycystin‐1: residues 3048-3703 of P98161
HA‐(3703‐4303) fragment of polycystin‐1: residues 3703-4303 of P98161
UniProt Q9Y4D1: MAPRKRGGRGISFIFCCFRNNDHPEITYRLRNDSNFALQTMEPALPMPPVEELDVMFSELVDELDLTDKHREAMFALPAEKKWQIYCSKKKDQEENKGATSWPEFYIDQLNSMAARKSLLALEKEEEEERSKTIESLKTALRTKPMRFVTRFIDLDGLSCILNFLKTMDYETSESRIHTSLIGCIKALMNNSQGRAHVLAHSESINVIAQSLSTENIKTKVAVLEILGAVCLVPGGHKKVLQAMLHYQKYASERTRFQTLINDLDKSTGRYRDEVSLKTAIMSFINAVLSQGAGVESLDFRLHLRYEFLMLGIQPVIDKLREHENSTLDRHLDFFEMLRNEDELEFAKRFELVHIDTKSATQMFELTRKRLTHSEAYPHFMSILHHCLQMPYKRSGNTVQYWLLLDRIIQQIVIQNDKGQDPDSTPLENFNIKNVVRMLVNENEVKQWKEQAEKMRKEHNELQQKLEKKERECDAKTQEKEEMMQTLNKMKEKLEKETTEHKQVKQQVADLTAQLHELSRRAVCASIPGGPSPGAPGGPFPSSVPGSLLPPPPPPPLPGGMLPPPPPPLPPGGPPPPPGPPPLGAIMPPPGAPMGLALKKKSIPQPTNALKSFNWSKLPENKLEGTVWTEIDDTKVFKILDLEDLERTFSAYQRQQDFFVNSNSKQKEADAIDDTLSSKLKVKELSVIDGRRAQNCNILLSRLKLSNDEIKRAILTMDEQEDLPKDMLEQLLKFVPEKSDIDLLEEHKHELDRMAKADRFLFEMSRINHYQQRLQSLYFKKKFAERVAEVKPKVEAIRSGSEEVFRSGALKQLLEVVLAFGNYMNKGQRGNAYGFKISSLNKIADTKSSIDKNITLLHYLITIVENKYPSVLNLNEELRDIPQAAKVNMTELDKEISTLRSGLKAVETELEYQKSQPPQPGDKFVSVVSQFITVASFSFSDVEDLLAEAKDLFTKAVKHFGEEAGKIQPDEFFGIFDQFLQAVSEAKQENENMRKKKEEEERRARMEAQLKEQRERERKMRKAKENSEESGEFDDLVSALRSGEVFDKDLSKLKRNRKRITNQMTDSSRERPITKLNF

Columns and labels:
[1] = biological target: polycystin‐1, full length (pCI‐PC1‐Flag) (human) (UniProt P98161); experiment: co-IP; lysates of HEK‐293T cells overexpressing polycystin‐1, immunoprecipitated with anti‐polycystin‐1 and probed with anti‐Daam1; IP lysis buffer, antibody overnight at 4 °C, protein A/G agarose beads 2 h at room temperature
[2] = biological target: HA‐(3048‐3703) fragment of polycystin‐1 (human) (UniProt P98161); experiment: co-IP; HEK‐293T cells expressing HA‐ or FLAG‐tagged constructs; IP lysis buffer, antibody overnight at 4 °C, protein A/G agarose beads 2 h at room temperature; blots with anti‐FLAG and anti‐HA
[3] = biological target: HA‐(3703‐4303) fragment of polycystin‐1 (human) (UniProt P98161); experiment: as above

- binding [1]: binds
- binding [2]: no binding
- binding [3]: binds
Substance: disheveled‐associated activator of morphogenesis 1 (Daam1) (from UniProt Q9Y4D1 1-1078)
